Results reported in the supplement of paper PMC10849652.
The list shows a part of the results.

Chains of the proteins cited; added tags and fusions are not shown. Lines headed by an entry give the natural chain unless they say otherwise; changes in a name come on top.
UniProt Q9NPA0: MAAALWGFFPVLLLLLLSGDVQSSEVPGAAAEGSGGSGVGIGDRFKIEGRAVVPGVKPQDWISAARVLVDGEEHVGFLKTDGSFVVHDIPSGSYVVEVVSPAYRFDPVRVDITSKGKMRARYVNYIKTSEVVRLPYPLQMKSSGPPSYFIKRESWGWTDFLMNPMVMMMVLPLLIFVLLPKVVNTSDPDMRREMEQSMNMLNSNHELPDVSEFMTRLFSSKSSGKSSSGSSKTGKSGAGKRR
UniProt P32519: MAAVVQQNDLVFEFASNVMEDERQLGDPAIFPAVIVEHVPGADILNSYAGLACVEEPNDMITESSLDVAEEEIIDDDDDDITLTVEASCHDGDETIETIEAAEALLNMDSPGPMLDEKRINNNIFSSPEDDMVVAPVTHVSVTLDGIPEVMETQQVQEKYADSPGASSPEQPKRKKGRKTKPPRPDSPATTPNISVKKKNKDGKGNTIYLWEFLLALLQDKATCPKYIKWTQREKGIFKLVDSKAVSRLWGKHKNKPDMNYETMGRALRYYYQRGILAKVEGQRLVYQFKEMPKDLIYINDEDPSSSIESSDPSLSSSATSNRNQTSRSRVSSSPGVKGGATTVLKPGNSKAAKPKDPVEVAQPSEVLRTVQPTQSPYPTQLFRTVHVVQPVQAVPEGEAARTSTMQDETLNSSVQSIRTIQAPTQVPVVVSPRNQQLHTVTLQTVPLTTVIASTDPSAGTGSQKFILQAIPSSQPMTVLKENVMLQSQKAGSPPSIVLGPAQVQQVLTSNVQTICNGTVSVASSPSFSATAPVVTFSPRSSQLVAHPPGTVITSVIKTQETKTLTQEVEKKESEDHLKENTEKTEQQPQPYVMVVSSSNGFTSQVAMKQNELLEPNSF
UniProt P05198, whole entry, looked up: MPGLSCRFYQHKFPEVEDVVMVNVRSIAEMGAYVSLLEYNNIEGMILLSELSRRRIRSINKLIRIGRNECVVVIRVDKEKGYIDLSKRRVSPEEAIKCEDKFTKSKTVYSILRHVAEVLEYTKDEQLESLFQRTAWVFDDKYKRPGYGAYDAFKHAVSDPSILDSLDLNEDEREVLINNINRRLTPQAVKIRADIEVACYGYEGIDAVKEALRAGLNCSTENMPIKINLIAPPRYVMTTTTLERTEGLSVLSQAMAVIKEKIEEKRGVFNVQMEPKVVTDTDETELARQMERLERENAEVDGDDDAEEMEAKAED
UniProt Q9UHY7: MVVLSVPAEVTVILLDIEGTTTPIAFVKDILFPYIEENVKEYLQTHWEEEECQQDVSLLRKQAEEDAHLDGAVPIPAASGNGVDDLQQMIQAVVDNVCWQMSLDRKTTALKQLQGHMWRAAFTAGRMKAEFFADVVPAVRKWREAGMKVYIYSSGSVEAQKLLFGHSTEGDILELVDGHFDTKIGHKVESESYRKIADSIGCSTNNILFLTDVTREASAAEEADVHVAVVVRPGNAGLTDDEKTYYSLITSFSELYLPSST
UniProt Q969X5: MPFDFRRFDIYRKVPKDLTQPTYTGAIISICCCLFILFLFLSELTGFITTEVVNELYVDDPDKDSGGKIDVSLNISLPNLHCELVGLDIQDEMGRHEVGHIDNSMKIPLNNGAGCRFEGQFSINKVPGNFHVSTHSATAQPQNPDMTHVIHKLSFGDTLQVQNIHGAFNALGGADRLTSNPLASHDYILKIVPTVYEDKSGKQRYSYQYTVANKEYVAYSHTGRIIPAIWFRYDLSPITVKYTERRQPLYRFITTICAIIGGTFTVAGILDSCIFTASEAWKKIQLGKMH
UniProt P63241: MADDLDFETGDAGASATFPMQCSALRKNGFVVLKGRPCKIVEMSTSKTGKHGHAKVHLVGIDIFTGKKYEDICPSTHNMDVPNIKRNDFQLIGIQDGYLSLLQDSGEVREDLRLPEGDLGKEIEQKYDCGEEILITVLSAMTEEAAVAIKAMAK
UniProt Q5UCC4: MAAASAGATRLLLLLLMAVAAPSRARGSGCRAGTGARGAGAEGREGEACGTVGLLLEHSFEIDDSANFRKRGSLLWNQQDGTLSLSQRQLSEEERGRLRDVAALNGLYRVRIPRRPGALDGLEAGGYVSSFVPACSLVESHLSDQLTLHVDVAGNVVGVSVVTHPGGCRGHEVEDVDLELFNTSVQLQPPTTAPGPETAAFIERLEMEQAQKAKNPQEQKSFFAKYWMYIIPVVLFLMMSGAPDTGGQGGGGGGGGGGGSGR
UniProt P07992: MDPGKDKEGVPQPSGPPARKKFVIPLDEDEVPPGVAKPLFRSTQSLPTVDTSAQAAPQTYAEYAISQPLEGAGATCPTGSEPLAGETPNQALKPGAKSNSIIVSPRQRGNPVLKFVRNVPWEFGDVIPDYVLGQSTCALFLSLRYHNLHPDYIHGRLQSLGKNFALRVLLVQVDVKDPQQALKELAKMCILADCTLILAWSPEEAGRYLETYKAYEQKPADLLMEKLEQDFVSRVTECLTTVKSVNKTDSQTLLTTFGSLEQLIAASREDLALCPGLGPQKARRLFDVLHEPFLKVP
UniProt P38919, whole entry, looked up: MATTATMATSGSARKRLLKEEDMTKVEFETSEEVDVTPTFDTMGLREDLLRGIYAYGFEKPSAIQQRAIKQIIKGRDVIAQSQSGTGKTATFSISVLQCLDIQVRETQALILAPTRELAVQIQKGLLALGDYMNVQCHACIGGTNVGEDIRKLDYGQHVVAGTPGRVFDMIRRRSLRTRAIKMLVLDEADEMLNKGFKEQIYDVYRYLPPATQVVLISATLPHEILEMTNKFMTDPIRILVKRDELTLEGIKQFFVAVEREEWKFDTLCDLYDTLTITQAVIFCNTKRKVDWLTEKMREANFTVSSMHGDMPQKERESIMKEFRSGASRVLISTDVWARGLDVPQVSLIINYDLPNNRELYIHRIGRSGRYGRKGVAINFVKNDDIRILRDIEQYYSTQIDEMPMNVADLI
UniProt P41214: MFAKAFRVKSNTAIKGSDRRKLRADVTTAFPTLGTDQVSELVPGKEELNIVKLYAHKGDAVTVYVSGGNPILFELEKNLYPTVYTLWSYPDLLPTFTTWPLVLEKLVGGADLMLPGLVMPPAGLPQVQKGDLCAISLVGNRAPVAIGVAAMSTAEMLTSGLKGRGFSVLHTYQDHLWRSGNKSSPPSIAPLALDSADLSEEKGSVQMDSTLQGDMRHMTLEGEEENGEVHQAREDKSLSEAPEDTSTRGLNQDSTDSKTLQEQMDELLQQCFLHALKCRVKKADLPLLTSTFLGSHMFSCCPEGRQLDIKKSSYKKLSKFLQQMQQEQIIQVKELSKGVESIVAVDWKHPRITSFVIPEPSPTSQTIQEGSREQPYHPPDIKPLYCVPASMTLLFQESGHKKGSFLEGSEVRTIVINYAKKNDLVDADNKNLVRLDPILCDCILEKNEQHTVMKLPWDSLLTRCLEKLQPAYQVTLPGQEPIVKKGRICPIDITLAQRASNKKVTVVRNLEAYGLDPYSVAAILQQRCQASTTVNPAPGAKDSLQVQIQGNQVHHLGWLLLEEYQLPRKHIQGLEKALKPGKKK
UniProt P42566: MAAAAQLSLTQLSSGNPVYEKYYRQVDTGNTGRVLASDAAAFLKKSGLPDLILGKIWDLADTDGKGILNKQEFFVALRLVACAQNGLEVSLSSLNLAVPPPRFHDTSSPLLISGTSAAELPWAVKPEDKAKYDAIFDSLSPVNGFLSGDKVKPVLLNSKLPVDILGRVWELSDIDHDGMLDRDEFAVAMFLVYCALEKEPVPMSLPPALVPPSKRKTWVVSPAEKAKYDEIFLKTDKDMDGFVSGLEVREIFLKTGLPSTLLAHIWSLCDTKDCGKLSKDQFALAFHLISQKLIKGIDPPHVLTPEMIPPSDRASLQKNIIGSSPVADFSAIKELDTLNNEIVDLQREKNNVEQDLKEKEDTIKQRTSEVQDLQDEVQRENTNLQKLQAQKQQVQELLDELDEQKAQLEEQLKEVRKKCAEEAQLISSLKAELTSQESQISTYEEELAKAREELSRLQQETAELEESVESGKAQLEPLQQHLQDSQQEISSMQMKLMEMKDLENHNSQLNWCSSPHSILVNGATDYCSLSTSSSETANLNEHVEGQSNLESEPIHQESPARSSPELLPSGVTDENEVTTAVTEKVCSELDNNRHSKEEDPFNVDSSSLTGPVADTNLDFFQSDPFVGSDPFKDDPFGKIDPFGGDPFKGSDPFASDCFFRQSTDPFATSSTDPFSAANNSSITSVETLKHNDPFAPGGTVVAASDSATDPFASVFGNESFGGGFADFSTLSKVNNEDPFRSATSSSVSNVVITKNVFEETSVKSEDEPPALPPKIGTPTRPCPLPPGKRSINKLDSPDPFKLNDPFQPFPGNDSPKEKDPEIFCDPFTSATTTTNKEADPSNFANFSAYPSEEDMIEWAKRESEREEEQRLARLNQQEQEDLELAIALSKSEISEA
UniProt Q8NFI3: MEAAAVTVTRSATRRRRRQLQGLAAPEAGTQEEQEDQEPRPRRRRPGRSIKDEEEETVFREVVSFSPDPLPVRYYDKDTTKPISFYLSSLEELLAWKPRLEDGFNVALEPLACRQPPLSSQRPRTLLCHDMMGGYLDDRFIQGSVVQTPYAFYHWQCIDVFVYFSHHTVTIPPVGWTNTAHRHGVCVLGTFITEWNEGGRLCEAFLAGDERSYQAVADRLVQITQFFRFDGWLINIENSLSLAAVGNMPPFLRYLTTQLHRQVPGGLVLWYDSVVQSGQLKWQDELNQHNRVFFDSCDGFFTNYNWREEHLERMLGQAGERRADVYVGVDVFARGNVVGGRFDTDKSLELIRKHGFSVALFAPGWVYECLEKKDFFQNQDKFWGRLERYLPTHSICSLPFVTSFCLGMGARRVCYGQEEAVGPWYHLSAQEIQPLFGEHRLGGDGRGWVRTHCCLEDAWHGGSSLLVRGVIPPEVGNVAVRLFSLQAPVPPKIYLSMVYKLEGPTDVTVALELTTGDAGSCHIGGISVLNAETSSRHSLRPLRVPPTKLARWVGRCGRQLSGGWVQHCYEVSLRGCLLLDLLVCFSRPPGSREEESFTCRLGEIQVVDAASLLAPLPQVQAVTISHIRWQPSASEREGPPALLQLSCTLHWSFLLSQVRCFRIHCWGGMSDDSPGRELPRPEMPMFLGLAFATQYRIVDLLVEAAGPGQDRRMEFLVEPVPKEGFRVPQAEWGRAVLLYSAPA

Tests used:
Assay in all cases: log2 fold change, soluble protein after heating vs DMSO (PISA); higher = thermal stabilisation; K562 lysate, 10 uM; active = over 0.2 and 3.5 SD of the protein, either way, in both replicates (recomputed)
alvocidib = compound: CN1CC[C@H](c2c(O)cc(O)c3c(=O)cc(-c4ccccc4Cl)oc23)[C@H](O)C1 [alvocidib]
Method in brief: (§1)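 Soluble protein was defined as the supernatant remaining after 21,000xg for 90 min, following pooling of heated aliquots and adjustment to 0.5% NP-40 at 4°C. Before that, crude K562 extract at 1 mg/mL protein in PBS pH 7.4 with 1 mM MgCl2 was treated with 10 μM compound for 30 min and heated for 3 min across 48°C-58°C. Quantification used TMTpro 16plex LC-MS/MS with channel sums equalised, and values are log-two fold changes in thermal stability relative to solvent controls from duplicates.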

Tubastatin A = compound: CN1CCc2c(c3ccccc3n2Cc2ccc(C(=O)NO)cc2)C1 [Tubastatin A]
Method in brief: as §1

[1] = compound: CNC(=O)C1=CC=CC=C1NC2=NC(=NC=C2Cl)NC3=C(C=C(C=C3)N4CCOCC4)OC
Method in brief: as §1

defactinib = compound: CNC(=O)c1ccc(Nc2ncc(C(F)(F)F)c(NCc3nccnc3N(C)S(C)(=O)=O)n2)cc1 [defactinib]
Method in brief: as §1

[2] = compound: CNc1nc(-c2ccc3c(N)n[nH]c3c2)cc(N2C[C@@H](C(=O)NC3CCCCC3)CC[C@H]2C)n1
Method in brief: as §1

encorafenib = compound: COC(=O)N[C@@H](C)CNc1nccc(-c2cn(C(C)C)nc2-c2cc(Cl)cc(NS(C)(=O)=O)c2F)n1 [encorafenib]
Method in brief: as §1

[3] = compound: COC(=O)[C@H](CCSC)NC(=O)C1=C(C=C(C=C1)NC[C@H](CS)N)C2=CC=CC=C2
Method in brief: as §1

alisertib = compound: COc1cc(Nc2ncc3c(n2)-c2ccc(Cl)cc2C(c2c(F)cccc2OC)=NC3)ccc1C(=O)O [alisertib]
Method in brief: as §1

[4] = compound: COc1cc2nc(-c3cc(F)ccc3O)nc(N[C@@H]3CNC[C@H]3C(C)(C)O)c2cc1OC
Method in brief: as §1

gefitinib = compound: COc1cc2ncnc(Nc3ccc(F)c(Cl)c3)c2cc1OCCCN1CCOCC1 [gefitinib]
Method in brief: as §1

lapatinib = compound: CS(=O)(=O)CCNCc1ccc(-c2ccc3ncnc(Nc4ccc(OCc5cccc(F)c5)c(Cl)c4)c3c2)o1 [lapatinib]
Method in brief: as §1

pictilisib = compound: CS(=O)(=O)N1CCN(Cc2cc3nc(-c4cccc5[nH]ncc45)nc(N4CCOCC4)c3s2)CC1 [pictilisib]
Method in brief: as §1

crizotinib = compound: C[C@@H](Oc1cc(-c2cnn(C3CCNCC3)c2)cnc1N)c1c(Cl)ccc(F)c1Cl [crizotinib]
Method in brief: as §1

[5] = compound: C[C@H](C1=CC=C(C=C1)C(=O)NC2=C3C=CNC3=NC=C2)N
Method in brief: as §1

duvelisib = compound: C[C@H](Nc1ncnc2nc[nH]c12)c1cc2cccc(Cl)c2c(=O)n1-c1ccccc1 [duvelisib]
Method in brief: as §1

gandotinib = compound: Cc1cc(Nc2cc(CN3CCOCC3)c3nc(C)c(Cc4ccc(Cl)cc4F)n3n2)n[nH]1 [gandotinib]
Method in brief: as §1

tozasertib = compound: Cc1cc(Nc2cc(N3CCN(C)CC3)nc(Sc3ccc(NC(=O)C4CC4)cc3)n2)n[nH]1 [tozasertib]
Method in brief: as §1

doramapimod = compound: Cc1ccc(-n2nc(C(C)(C)C)cc2NC(=O)Nc2ccc(OCCN3CCOCC3)c3ccccc23)cc1 [doramapimod]
Method in brief: as §1

bafetinib = compound: Cc1ccc(NC(=O)c2ccc(CN3CC[C@H](N(C)C)C3)c(C(F)(F)F)c2)cc1Nc1nccc(-c2cncnc2)n1 [bafetinib]
Method in brief: as §1

[6] = compound: Cc1cccc(CC(=O)N2CCc3c2ccc(-c2cn(C)c4ncnc(N)c24)c3F)n1
Method in brief: as §1

Measured: log2 fold change

EMC7 (UniProt Q9NPA0)
active: [5] -0.353
inactive: alvocidib -0.146 | Tubastatin A 0.039 | [1] -0.037 | defactinib 0.02 | [2] -0.008 | encorafenib 0.026 | [3] -0.058 | alisertib 0.001 | [4] 0.017 | gefitinib -0.043 | lapatinib -0.03 | pictilisib 0.024 | crizotinib 0.012 | duvelisib -0.041 | gandotinib 0.077 | tozasertib 0.02 | doramapimod 0.011 | bafetinib -0.031 | [6] 0.174

ELF1 (UniProt P32519)
inactive: alvocidib 0.11 | Tubastatin A -0.047 | [1] -0.022 | defactinib -0.021 | [2] 0.055 | encorafenib 0.013 | [3] -0.045 | alisertib 0.015 | [4] -0.039 | gefitinib -0.07 | lapatinib 0.016 | pictilisib 0.012 | crizotinib -0.013 | [5] 0.061 | duvelisib 0.003 | gandotinib -0.059 | tozasertib -0.061 | doramapimod 0.01 | bafetinib -0.01 | [6] -0.055

EMC2 (UniProt Q15006)
inactive: alvocidib 0.093 | Tubastatin A 0.053 | [1] -0.027 | defactinib -0.004 | [2] 0.014 | encorafenib -0.012 | [3] 0.023 | alisertib 0 | [4] 0.02 | gefitinib -0.042 | lapatinib -0.021 | pictilisib 0.007 | crizotinib 0.009 | [5] 0.026 | duvelisib -0.051 | gandotinib -0.07 | tozasertib 0.01 | doramapimod -0.027 | bafetinib 0.009 | [6] -0.017

EIF6 (UniProt P56537)
inactive: alvocidib -0.044 | Tubastatin A 0.035 | [1] 0.016 | defactinib -0.057 | [2] 0.019 | encorafenib -0.022 | [3] 0.005 | alisertib -0.012 | [4] 0.009 | gefitinib -0.013 | lapatinib 0.002 | pictilisib 0.018 | crizotinib -0.018 | [5] -0.085 | duvelisib 0.015 | gandotinib 0.06 | tozasertib -0.049 | doramapimod 0.02 | bafetinib 0.038 | [6] 0.076

EIF2S1 (UniProt P05198)
inactive: alvocidib -0.027 | Tubastatin A 0.057 | [1] -0.012 | defactinib -0.019 | [2] -0.004 | encorafenib -0.017 | [3] -0.008 | alisertib -0.013 | [4] 0.001 | gefitinib -0.011 | lapatinib -0.006 | pictilisib 0.01 | crizotinib -0.003 | [5] -0.048 | duvelisib 0.039 | gandotinib 0.028 | tozasertib 0.001 | doramapimod 0.029 | bafetinib -0.012 | [6] 0.04

EIF4H (UniProt Q15056)
inactive: alvocidib -0.031 | Tubastatin A 0.02 | [1] 0.009 | defactinib 0.039 | [2] 0.005 | encorafenib -0.01 | [3] -0.032 | alisertib 0.044 | [4] -0.027 | gefitinib 0.007 | lapatinib 0.015 | pictilisib 0.009 | crizotinib 0.064 | [5] -0.019 | duvelisib -0.027 | gandotinib 0.042 | tozasertib 0.006 | doramapimod 0.014 | bafetinib 0.046 | [6] 0.007

ENOPH1 (UniProt Q9UHY7)
inactive: alvocidib 0.032 | Tubastatin A -0.004 | [1] 0.026 | defactinib 0.025 | [2] -0.017 | encorafenib -0.035 | [3] 0.058 | alisertib -0.034 | [4] -0.003 | gefitinib -0.023 | lapatinib -0.024 | pictilisib -0.017 | crizotinib -0.035 | [5] -0.003 | duvelisib -0.035 | gandotinib -0.036 | tozasertib -0.018 | doramapimod -0.022 | bafetinib -0.07 | [6] -0.012

ERGIC1 (UniProt Q969X5)
inactive: alvocidib -0.004 | Tubastatin A 0.043 | [1] 0.024 | defactinib -0.033 | [2] 0.018 | encorafenib 0.006 | [3] -0.006 | alisertib -0.011 | [4] -0.015 | gefitinib 0.063 | lapatinib -0.005 | pictilisib 0.018 | crizotinib 0.005 | [5] -0.018 | duvelisib 0.023 | gandotinib 0.008 | tozasertib 0.029 | doramapimod -0.034 | bafetinib -0.059 | [6] 0.04

EIF5A isoform 2 (UniProt P63241)
inactive: alvocidib 0.014 | Tubastatin A 0.014 | [1] -0.025 | defactinib -0.017 | [2] 0.026 | encorafenib -0.014 | [3] -0.04 | alisertib 0.005 | [4] 0.003 | gefitinib -0.049 | lapatinib -0.005 | pictilisib -0.023 | crizotinib 0.031 | [5] 0.039 | duvelisib 0.011 | gandotinib -0.002 | tozasertib -0.003 | doramapimod -0.005 | bafetinib 0.031 | [6] -0.05

EMC10 (UniProt Q5UCC4)
inactive: alvocidib -0.096 | Tubastatin A 0.113 | [1] -0.004 | defactinib 0.006 | [2] -0.018 | encorafenib -0.033 | [3] -0.113 | alisertib -0.033 | [4] -0.048 | gefitinib 0.046 | lapatinib -0.066 | pictilisib -0.051 | crizotinib 0.019 | [5] -0.148 | duvelisib 0.031 | gandotinib 0.127 | tozasertib 0.039 | doramapimod -0.013 | bafetinib 0.01 | [6] 0.185

ERCC1 (UniProt P07992)
inactive: alvocidib -0.068 | Tubastatin A -0.009 | [1] -0.031 | defactinib 0.14 | [2] 0.021 | encorafenib 0.02 | [3] 0.02 | alisertib 0.085 | [4] -0.016 | gefitinib 0.064 | lapatinib -0.007 | pictilisib -0.002 | crizotinib 0.037 | [5] 0.04 | duvelisib 0.002 | gandotinib 0.044 | tozasertib -0.148 | doramapimod -0.073 | bafetinib -0.049 | [6] 0.043

EIF4A3 (UniProt P38919)
inactive: alvocidib -0.003 | Tubastatin A 0.002 | [1] -0.01 | defactinib -0.009 | [2] 0.008 | encorafenib -0.019 | [3] 0.039 | alisertib 0.019 | [4] 0.018 | gefitinib -0.023 | lapatinib -0.034 | pictilisib 0.011 | crizotinib -0.01 | [5] -0.116 | duvelisib 0.015 | gandotinib -0.015 | tozasertib -0.025 | doramapimod 0.051 | bafetinib -0.018 | [6] 0.042

EPB41, A0A2R8Y6D0
inactive: alvocidib -0.015 | Tubastatin A -0.033 | [1] 0.114 | defactinib 0.098 | [2] -0.178 | encorafenib 0.029 | [3] 0.052 | alisertib 0.165 | [4] -0.014 | gefitinib 0.407 | lapatinib 0.008 | pictilisib -0.14 | crizotinib -0.085 | [5] -0.037 | duvelisib -0.086 | gandotinib 0.031 | tozasertib 0.068 | doramapimod -0.051 | bafetinib -0.031 | [6] -0.003

EIF2D (UniProt P41214)
inactive: alvocidib 0.017 | Tubastatin A -0.083 | [1] 0.003 | defactinib 0.033 | [2] -0.024 | encorafenib -0.014 | [3] 0.164 | alisertib 0.013 | [4] -0.018 | gefitinib -0.031 | lapatinib -0.002 | pictilisib -0.014 | crizotinib -0.067 | [5] 0.024 | duvelisib 0.022 | gandotinib -0.084 | tozasertib 0.029 | doramapimod 0.032 | bafetinib -0.063 | [6] -0.01

EPS15 (UniProt P42566)
inactive: alvocidib 0.005 | Tubastatin A -0.01 | [1] -0.019 | defactinib -0.018 | [2] -0.034 | encorafenib 0.01 | [3] -0.028 | alisertib 0.01 | [4] -0.015 | gefitinib 0.001 | lapatinib 0.007 | pictilisib -0.016 | crizotinib 0.022 | [5] -0.015 | duvelisib 0.016 | gandotinib -0.004 | tozasertib -0.007 | doramapimod -0.015 | bafetinib -0.011 | [6] 0.003

ENGASE (UniProt Q8NFI3)
inactive: alvocidib -0.144 | Tubastatin A -0.02 | [1] 0.043 | defactinib -0.011 | [2] 0.02 | encorafenib 0.018 | [3] -0.056 | alisertib 0.025 | [4] -0.015 | gefitinib 0.018 | lapatinib -0.02 | pictilisib 0 | crizotinib 0.011 | [5] -0.048 | duvelisib -0.025 | gandotinib 0.116 | tozasertib 0.051 | doramapimod 0.033 | bafetinib 0.003 | [6] 0.148
